The text below walks through data of the supplement of paper PMC10849652.

Amino acid sequences for entries named in this document (tags omitted). A change or cut given only in a name is not applied to a line headed by its entry.
UniProt Q9UJ14: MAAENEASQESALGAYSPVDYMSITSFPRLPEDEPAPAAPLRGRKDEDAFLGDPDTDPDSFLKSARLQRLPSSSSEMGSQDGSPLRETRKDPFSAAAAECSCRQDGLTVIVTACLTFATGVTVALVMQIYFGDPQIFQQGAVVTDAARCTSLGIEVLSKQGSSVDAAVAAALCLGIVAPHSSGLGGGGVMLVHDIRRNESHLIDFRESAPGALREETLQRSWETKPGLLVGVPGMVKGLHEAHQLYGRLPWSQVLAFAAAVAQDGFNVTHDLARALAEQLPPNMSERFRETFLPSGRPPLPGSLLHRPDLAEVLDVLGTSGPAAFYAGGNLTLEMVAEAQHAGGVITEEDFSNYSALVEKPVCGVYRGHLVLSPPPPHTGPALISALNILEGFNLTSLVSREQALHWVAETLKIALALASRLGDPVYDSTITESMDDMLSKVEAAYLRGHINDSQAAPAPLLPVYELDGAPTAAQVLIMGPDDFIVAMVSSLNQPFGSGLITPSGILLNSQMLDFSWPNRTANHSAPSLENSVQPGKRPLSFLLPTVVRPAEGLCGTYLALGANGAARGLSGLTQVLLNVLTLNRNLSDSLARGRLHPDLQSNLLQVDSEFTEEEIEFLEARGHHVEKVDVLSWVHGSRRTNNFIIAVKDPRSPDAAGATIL
UniProt Q9HCG7: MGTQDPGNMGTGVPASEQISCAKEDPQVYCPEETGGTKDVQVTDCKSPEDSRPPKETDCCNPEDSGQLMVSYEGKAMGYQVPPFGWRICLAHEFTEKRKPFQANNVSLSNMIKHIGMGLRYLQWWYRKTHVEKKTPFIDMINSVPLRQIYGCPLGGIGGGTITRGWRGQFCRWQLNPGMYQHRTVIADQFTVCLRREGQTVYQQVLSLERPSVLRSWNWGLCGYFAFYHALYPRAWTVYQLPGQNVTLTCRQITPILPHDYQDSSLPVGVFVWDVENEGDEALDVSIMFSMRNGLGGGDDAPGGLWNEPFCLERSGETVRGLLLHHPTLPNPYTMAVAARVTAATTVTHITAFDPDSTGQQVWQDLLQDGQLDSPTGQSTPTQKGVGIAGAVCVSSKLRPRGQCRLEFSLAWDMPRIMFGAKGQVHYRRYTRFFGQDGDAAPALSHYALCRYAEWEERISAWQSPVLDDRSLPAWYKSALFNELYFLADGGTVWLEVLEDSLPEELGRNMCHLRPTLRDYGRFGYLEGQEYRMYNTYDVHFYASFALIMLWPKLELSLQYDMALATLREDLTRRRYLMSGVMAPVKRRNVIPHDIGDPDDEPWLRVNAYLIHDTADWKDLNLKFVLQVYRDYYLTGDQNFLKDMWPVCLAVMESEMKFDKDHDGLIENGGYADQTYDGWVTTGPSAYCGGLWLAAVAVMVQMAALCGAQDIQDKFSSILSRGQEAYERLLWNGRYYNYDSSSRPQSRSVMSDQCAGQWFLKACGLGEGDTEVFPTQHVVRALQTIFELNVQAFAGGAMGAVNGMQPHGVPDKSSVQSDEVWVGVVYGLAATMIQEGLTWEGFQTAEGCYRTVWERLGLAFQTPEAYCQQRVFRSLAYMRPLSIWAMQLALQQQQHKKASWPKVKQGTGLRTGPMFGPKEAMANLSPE
UniProt Q04446: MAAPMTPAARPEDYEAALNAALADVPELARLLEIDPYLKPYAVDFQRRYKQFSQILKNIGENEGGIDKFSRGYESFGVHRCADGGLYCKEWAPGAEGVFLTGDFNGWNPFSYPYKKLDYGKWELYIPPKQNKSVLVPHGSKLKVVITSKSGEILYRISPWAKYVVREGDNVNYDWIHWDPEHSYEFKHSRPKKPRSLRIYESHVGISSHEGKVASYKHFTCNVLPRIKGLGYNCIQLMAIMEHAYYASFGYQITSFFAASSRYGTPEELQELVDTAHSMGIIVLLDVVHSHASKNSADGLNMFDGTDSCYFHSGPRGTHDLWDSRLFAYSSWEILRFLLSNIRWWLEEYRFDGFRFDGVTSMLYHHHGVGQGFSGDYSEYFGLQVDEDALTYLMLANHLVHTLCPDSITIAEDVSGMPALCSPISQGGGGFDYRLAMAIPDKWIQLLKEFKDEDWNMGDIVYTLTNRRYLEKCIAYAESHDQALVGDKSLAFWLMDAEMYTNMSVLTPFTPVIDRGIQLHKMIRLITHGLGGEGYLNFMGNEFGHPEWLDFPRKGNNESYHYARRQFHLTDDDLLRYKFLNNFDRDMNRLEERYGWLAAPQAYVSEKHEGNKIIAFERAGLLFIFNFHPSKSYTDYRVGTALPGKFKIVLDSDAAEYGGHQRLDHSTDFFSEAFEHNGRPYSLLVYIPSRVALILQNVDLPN
UniProt Q9NXN4: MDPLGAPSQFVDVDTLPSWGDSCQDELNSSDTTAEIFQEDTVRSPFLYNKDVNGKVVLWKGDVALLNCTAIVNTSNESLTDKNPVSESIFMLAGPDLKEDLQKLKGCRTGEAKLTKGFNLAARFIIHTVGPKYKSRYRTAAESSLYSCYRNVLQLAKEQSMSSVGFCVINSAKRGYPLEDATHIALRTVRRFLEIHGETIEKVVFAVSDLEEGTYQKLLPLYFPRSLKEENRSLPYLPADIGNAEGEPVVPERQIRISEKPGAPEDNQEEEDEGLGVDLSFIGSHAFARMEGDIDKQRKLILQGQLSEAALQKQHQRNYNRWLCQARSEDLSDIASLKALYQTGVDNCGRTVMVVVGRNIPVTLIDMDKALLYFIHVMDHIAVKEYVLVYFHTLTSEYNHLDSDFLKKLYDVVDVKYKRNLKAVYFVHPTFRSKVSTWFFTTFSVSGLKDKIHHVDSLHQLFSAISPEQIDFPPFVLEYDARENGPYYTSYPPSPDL
UniProt P16383: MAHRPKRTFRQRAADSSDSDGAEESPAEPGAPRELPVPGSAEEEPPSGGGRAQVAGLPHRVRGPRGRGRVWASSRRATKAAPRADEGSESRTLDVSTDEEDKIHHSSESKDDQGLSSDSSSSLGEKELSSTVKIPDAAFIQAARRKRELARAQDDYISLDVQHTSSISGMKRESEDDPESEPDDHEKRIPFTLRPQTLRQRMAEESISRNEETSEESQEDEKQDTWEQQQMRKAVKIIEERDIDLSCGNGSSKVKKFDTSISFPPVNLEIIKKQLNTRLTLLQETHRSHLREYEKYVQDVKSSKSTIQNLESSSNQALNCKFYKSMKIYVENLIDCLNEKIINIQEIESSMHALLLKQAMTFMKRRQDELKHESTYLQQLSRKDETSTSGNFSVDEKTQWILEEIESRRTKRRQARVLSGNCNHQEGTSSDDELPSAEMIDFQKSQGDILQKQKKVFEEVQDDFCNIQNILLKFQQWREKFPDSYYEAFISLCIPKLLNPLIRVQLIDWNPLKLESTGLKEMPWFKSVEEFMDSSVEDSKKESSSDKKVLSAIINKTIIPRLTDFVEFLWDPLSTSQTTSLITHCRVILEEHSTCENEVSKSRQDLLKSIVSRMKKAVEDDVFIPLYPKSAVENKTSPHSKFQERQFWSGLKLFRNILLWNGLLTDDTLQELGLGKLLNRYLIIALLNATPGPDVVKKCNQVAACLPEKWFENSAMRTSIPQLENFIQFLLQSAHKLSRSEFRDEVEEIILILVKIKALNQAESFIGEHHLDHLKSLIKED
UniProt Q96DB9: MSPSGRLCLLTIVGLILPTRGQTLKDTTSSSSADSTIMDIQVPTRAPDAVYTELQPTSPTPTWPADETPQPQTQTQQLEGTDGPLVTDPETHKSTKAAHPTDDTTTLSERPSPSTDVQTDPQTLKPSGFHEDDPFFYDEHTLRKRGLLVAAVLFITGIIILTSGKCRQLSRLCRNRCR
UniProt P19526, whole entry, looked up: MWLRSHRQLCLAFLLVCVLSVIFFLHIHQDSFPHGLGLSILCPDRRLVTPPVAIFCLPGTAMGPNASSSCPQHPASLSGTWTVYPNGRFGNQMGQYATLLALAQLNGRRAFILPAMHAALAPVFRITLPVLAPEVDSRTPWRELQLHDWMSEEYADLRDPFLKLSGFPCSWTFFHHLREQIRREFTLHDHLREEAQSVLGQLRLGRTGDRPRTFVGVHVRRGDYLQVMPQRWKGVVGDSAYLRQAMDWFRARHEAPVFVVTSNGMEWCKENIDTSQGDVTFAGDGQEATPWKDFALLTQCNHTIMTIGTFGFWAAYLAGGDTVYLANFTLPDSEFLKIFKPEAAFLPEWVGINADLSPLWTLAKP
UniProt O15117, whole entry, looked up: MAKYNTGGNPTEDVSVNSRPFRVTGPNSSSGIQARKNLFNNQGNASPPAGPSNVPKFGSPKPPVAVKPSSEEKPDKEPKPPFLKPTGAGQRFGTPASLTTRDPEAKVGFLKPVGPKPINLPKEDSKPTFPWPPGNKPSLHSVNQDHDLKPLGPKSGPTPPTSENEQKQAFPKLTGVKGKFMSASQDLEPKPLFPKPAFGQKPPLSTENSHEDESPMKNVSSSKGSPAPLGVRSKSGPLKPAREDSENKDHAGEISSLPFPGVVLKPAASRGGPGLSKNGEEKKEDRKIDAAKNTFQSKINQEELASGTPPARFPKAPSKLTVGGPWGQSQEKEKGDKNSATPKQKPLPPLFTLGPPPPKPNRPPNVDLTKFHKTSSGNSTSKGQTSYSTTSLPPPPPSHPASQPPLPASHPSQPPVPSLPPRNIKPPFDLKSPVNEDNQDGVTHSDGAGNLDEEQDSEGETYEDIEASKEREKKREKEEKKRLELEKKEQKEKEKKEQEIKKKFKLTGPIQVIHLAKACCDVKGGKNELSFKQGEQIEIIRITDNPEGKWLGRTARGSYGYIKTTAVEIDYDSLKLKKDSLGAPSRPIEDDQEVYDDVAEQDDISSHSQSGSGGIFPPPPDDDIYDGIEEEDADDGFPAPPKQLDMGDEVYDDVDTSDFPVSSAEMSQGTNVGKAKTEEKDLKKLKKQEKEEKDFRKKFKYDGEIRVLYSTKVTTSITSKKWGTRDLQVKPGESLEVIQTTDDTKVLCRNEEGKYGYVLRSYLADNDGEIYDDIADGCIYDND
UniProt Q9UPW0: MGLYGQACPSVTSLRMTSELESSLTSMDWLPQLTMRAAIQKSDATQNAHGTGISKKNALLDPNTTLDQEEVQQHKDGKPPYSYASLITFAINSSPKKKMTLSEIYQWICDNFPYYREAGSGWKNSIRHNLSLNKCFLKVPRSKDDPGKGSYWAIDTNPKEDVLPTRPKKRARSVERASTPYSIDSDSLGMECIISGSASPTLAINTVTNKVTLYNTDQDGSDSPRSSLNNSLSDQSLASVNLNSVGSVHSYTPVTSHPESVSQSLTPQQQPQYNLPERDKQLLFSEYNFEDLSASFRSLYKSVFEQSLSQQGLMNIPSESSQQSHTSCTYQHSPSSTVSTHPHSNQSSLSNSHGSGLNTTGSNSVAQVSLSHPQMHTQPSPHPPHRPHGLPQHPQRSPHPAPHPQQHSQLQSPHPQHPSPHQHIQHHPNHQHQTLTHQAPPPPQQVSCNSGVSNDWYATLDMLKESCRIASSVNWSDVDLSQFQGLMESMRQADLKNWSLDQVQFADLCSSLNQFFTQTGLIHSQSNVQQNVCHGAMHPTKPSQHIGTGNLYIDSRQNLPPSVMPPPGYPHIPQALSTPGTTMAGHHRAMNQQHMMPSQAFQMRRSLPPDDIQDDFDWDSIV
UniProt P19440: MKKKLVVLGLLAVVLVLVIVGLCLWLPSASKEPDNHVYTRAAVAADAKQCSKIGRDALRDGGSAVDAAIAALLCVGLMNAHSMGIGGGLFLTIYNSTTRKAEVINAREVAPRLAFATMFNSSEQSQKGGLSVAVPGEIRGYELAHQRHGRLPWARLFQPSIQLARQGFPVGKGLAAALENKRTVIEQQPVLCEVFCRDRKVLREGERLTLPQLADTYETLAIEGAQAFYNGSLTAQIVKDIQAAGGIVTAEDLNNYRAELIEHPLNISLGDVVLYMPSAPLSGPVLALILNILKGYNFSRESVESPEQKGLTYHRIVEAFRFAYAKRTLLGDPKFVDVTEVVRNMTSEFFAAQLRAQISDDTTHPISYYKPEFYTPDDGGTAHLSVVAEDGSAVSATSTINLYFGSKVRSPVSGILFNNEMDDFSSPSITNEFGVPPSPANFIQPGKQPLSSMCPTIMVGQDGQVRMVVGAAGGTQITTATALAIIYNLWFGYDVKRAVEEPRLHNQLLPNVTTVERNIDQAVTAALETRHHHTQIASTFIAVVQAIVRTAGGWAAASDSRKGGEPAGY

The other results are listed elsewhere or left out.

Assay in all cases: log2 fold change, soluble protein after heating vs DMSO (PISA); higher = thermal stabilisation; K562 cells, 10 uM, 30 min; active = over 0.2 and 3.5 SD of the protein, either way, in both replicates (recomputed)
Compound in experiment [1]: CS(=O)(=O)c1ccc(-c2cnc(N)c(C(=O)Nc3ccccc3)n2)cc1
An outline of the steps: (§1)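 K562 cells at 2×10^6 cells/mL were exposed to 10 μM compound for 30 min, then aliquots were heated for 3 min across 48°C-58°C, pooled, and extracted in PBS containing 0.5% NP-40 at 4°C. The supernatant after 21,000xg for 90 min was taken as soluble protein and measured by TMTpro 16plex LC-MS/MS with channel sums equalised. Thermal stability is reported relative to control samples, with values from duplicates. Fold changes are given on a log2 scale.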

Compound in a further experiment: C[C@@H](Oc1cc(-c2cnn(C3CCNCC3)c2)cnc1N)c1c(Cl)ccc(F)c1Cl [crizotinib]
In a few lines:
as §1

Compound in experiment [2]: C[C@@H]1COCCN1C2=NC(=NC(=C2)C3(CC3)S(=O)(=O)C)C4=C5C=CNC5=CC=C4
In a few lines: as §1

Compound in experiment [3]: C[C@H](C1=CC=C(C=C1)C(=O)NC2=C3C=CNC3=NC=C2)N
In a few lines:
as §1

Compound in another experiment: Cc1cc(Nc2cc(CN3CCOCC3)c3nc(C)c(Cc4ccc(Cl)cc4F)n3n2)n[nH]1 [gandotinib]
An outline of the steps:
as §1

Compound in experiment [4]: Cc1cc(SCc2sc(-c3ccc(C(F)(F)F)cc3)nc2C)ccc1OCC(=O)O
In a few lines:
as §1

Compound in another experiment: Cc1ccc(-n2nc(C(C)(C)C)cc2NC(=O)Nc2ccc(OCCN3CCOCC3)c3ccccc23)cc1 [doramapimod]
An outline of the steps: as §1

Compound in the next experiment: Cc1ccc(C(=O)N(CCCN)[C@@H](c2nc3cc(Cl)ccc3c(=O)n2Cc2ccccc2)C(C)C)cc1 [ispinesib]
In a few lines:
as §1

Compound in another experiment: Cc1ccc(NC(=O)c2ccc(CN3CC[C@H](N(C)C)C3)c(C(F)(F)F)c2)cc1Nc1nccc(-c2cncnc2)n1 [bafetinib]
In a few lines:
as §1

Compound in experiment [5]: Cc1cccc(CC(=O)N2CCc3c2ccc(-c2cn(C)c4ncnc(N)c24)c3F)n1
An outline of the steps:
as §1

Compound in the next experiment: Cc1cn(-c2cc(NC(=O)c3ccc(C)c(Nc4nccc(-c5cccnc5)n4)c3)cc(C(F)(F)F)c2)cn1 [nilotinib]
An outline of the steps:
as §1

Compound in experiment [6]: Cc1nc(Nc2n[nH]c3c2CN(C(=O)N[C@H](CN(C)C)c2ccccc2)C3(C)C)c2sccc2n1
An outline of the steps: as §1

Compound in a further experiment: Cc1nc(Nc2ncc(C(=O)Nc3c(C)cccc3Cl)s2)cc(N2CCN(CCO)CC2)n1 [dasatinib]
An outline of the steps: as §1

Compound in experiment [7]: Cc1ncc(-c2ccnc(Nc3ccc(S(C)(=O)=O)cc3)n2)n1C(C)C
An outline of the steps:
as §1

Compound in experiment [8]: Cn1cc(-c2ccc3c(c2)CCN3C(=O)Cc2cccc(C(F)(F)F)c2)c2c(N)ncnc21
In a few lines: as §1

Compound in experiment [9]: Cn1cc(-c2ccc3nnc(C(F)(F)c4ccc5ncccc5c4)n3n2)cn1
An outline of the steps: as §1

Compound in the next experiment: Cn1cncc1[C@@](N)(c1ccc(Cl)cc1)c1ccc2c(c1)c(-c1cccc(Cl)c1)cc(=O)n2C [tipifarnib]
An outline of the steps:
as §1

Compound in another experiment: FC(F)(F)c1ccc(/C=C/c2nc(COc3ccc(CCCCn4ccnn4)cc3)co2)cc1 [mubritinib]
In a few lines:
as §1

Compound in another experiment: C[C@H](Nc1ncnc2nc[nH]c12)c1cc2cccc(Cl)c2c(=O)n1-c1ccccc1 [duvelisib]
In a few lines:
as §1

Compound in another experiment: Cc1cc(Nc2cc(N3CCN(C)CC3)nc(Sc3ccc(NC(=O)C4CC4)cc3)n2)n[nH]1 [tozasertib]
In a few lines:
as §1

Regarding GGT7 (UniProt Q9UJ14), the log2 fold change is inactive: 0.035 in experiment [1]; inactive: 0.013 with crizotinib; inactive: -0.128 in experiment [2]; inactive: 0.013 in [3]; inactive: -0.03 with gandotinib; inactive: -0.091 in experiment [4]. Besides, the log2 fold change with doramapimod is inactive: 0.023; with ispinesib, inactive: -0.032; with bafetinib, inactive: -0.081; in experiment [5] it was inactive: -0.038; with nilotinib, inactive: 0.026; in experiment [6], inactive: 0.015. The log2 fold change with dasatinib was inactive: -0.02; in experiment [7] it was inactive: -0.03; in experiment [8], inactive: 0.063; in experiment [9], inactive: 0.018; with tipifarnib it was inactive: 0.001; with mubritinib, inactive: 0.021.
On to GBA2 (UniProt Q9HCG7), for which the log2 fold change is inactive: 0.091 in [1]; inactive: 0.094 with crizotinib; inactive: 0.051 in experiment [2]; inactive: 0.004 in experiment [3]; inactive: 0.067 in experiment [4]; inactive: 0.056 in the experiment with doramapimod. Also, the log2 fold change is inactive: 0.045 in the experiment with bafetinib; inactive: -0.057 with nilotinib; inactive: -0.061 in experiment [6]; inactive: -0.144 with dasatinib; inactive: 0.007 in experiment [7]; inactive: 0.138 in experiment [8]. Further, the log2 fold change in the experiment with tipifarnib was inactive: 0.091; with mubritinib, inactive: 0.234.
GBE1 (UniProt Q04446): the log2 fold change with crizotinib is active: -0.565; in [2], inactive: -0.054; in experiment [3] it was inactive: 0.193; in experiment [4], inactive: 0.094; with doramapimod, inactive: -0.02; with ispinesib it was inactive: -0.286. Further, the log2 fold change is inactive: 0.067 in the experiment with bafetinib; inactive: -0.275 with dasatinib; inactive: -0.004 in experiment [8]; inactive: 0.059 in [9]; inactive: -0.608 with tipifarnib; inactive: 0.181 with mubritinib.
Regarding GDAP2 (UniProt Q9NXN4), the log2 fold change in experiment [1] was inactive: 0.374; in the experiment with crizotinib, inactive: -0.103; in [2] it was inactive: -0.029; with duvelisib, inactive: 0.216; in experiment [4] it was inactive: 0.065; in the experiment with doramapimod it was inactive: 0.119. Moreover, the log2 fold change with nilotinib is inactive: 0.094; in experiment [6] it was inactive: -0.168; with dasatinib, inactive: 0.12; in [7] it was inactive: 0.536; with mubritinib, inactive: -0.25.
Consider GCFC2 (UniProt P16383), for which the log2 fold change was inactive: 0.012 in experiment [1]; inactive: 0.179 in experiment [2]; inactive: 0.043 in experiment [3]; inactive: -0.022 in the experiment with duvelisib; inactive: 0.006 with gandotinib; inactive: 0.017 in the experiment with tozasertib. Besides, the log2 fold change in experiment [4] is inactive: 0.037; with ispinesib, inactive: -0.014; with bafetinib it was inactive: 0; in experiment [5], inactive: -0.004; with nilotinib, inactive: 0.107; in experiment [6] it was inactive: 0.005. Moreover, the log2 fold change in the experiment with dasatinib is inactive: -0.035; in experiment [7], inactive: -0.082; in experiment [8], inactive: -0.042; in experiment [9], inactive: -0.006; with tipifarnib, inactive: 0.058; in the experiment with mubritinib it was inactive: -0.041.
Turning to FXYD5 (UniProt Q96DB9), the log2 fold change in [1] was inactive: -0.04; with crizotinib, inactive: 0.106; in experiment [3], inactive: -0.067; with duvelisib, inactive: 0.169; with gandotinib, inactive: 0.183; in experiment [4], inactive: 0.011. Besides, the log2 fold change with doramapimod is inactive: 0.26; with ispinesib it was inactive: 0.036; in experiment [5], inactive: -0.375; with dasatinib, inactive: -0.057; in [8], inactive: 0.025; in experiment [9] it was inactive: 0.118. Besides, the log2 fold change with tipifarnib was inactive: 0.
As to FUT1 (UniProt P19526), the values for the log2 fold change in [1] and in experiment [2] were inactive: -0.172 and inactive: 0.1, respectively.
As for FYB1 isoform 3 (UniProt O15117), the log2 fold change is inactive: -0.025 in [1]; inactive: -0.11 in the experiment with crizotinib; inactive: 0.046 in experiment [2]; active: -0.344 in the experiment with duvelisib; inactive: 0.057 with gandotinib; inactive: 0.067 in experiment [4]. In addition, the log2 fold change with doramapimod is inactive: 0.021; with ispinesib it was inactive: -0.083; in the experiment with bafetinib, inactive: -0.019; in experiment [5], inactive: -0.071; with nilotinib, inactive: -0.036; in [6], inactive: -0.026. Moreover, the log2 fold change with dasatinib is inactive: -0.021; in experiment [7], inactive: -0.077; in [9], inactive: -0.156; with tipifarnib it was inactive: -0.025; with mubritinib it was inactive: 0.085.
On to FOXJ3 (UniProt Q9UPW0), for which the log2 fold change was inactive: -0.038 with crizotinib; inactive: 0.023 in experiment [2]; inactive: -0.035 in experiment [3]; inactive: 0.099 in the experiment with duvelisib; inactive: -0.003 with tozasertib; inactive: -0.039 in [4]. The log2 fold change with doramapimod was inactive: -0.037; with ispinesib it was inactive: 0.055; with bafetinib it was inactive: -0.147; with nilotinib it was inactive: 0.103; in experiment [6], inactive: -0.237; with dasatinib, inactive: -0.028. The log2 fold change in experiment [7] is inactive: -0.2; in [8] it was inactive: 0.025; in experiment [9], inactive: -0.041; with tipifarnib, inactive: 0.093; in the experiment with mubritinib it was inactive: -0.108.
As for GGT1 (UniProt P19440), the log2 fold change is inactive: 0.026 in [1]; inactive: 0.092 with crizotinib; inactive: -0.029 in experiment [2]; inactive: -0.138 in the experiment with duvelisib; inactive: 0.025 with gandotinib; inactive: -0.015 with tozasertib. The log2 fold change in experiment [4] is inactive: 0.184; in the experiment with doramapimod, inactive: -0.003; with bafetinib, inactive: -0.022; in experiment [5], inactive: -0.063; with dasatinib, inactive: 0.032; with tipifarnib it was inactive: 0.025. For the same target, the log2 fold change with mubritinib was inactive: 0.001.
As for GALNT7 (UniProt H0YAH3), the log2 fold change is inactive: -0.055 with crizotinib; inactive: -0.259 in experiment [2]; inactive: 0.271 in [3]; inactive: 0.104 in the experiment with doramapimod; inactive: -0.088 with bafetinib; inactive: 0.134 in experiment [8].
